From publication PMC9733572

Protein sequences, listed by entry. Tags and fused reporters are not part of them. Residues count along the entry.
UniProt Q96DU3, residues 22-332: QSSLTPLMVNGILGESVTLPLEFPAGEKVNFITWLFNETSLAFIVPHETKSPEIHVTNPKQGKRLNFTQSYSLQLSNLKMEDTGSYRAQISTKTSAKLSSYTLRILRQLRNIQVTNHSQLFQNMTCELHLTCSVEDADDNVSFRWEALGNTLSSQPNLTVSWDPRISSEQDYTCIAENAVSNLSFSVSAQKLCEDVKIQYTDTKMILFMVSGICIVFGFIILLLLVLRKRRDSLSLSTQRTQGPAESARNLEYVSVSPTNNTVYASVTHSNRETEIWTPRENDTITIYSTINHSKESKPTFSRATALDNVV
UniProt P06239: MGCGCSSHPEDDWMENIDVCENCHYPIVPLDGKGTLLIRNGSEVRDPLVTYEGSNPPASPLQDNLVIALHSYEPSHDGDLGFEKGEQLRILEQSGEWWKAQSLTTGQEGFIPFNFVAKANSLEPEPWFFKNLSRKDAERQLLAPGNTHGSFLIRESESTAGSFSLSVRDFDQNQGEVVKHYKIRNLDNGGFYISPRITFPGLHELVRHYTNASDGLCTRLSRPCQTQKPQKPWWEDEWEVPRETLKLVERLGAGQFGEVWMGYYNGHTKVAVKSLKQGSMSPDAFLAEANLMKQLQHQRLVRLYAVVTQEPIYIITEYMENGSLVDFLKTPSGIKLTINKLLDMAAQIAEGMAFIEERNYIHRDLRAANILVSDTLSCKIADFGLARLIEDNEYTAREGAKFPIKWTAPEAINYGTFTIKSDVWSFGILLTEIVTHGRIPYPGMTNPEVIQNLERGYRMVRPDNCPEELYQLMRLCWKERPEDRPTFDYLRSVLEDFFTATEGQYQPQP
UniProt P43403: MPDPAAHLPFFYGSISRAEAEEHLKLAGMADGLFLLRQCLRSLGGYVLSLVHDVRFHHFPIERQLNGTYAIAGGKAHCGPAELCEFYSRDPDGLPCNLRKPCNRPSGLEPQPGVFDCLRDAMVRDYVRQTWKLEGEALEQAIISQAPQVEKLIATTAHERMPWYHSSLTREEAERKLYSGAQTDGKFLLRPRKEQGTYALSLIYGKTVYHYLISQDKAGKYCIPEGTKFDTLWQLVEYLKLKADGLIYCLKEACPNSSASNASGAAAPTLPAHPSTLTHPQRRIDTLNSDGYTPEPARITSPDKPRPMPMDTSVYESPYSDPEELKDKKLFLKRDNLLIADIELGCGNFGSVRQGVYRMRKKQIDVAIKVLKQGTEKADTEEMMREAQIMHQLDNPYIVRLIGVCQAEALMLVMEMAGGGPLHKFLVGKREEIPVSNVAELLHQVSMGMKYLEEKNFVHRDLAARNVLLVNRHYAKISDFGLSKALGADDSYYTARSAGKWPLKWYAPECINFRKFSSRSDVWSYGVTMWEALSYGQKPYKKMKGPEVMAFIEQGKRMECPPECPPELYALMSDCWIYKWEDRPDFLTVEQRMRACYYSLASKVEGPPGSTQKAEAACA

Target: V5-tagged SLAMF6 (UniProt Q96DU3)
Experiment: affinity purification with mass spectrometry; V5-SLAMF6 Jurkat T cells stimulated 15 min with plate-coated anti-CD3 + anti-SLAMF6 (plate) or plate-coated anti-CD3 + soluble anti-SLAMF6 (soluble); lysis in 1% NP-40, 25 mM Tris pH 8.0, 150 mM NaCl, 1 mM EDTA, 5% glycerol; anti-V5 agarose beads; gel, mass spectrometry

Substance	binding
LCK (from UniProt P06239 1-509) (enzyme)	binds
ZAP70 (from UniProt P43403 1-619) (enzyme)	binds

Results are given in words; binding and its absence hold for the method and conditions named. In cells and extracts the contact can be indirect. A yes stands for co-enrichment or nearness to the bait. Other partners may have been found.
